Source: doi:10.1101/2025.05.05.652186
No constants are given. Whether binding was seen depends on the method and setting. Some results given as binding are weak or reduced against the parent protein; the word gives no strength.

By UniProt entry, the sequences of proteins in these tests, tags left out. Where a name states a change or a piece, a line headed by the entry shows the natural chain unless it says otherwise. Residues count along the entry.
UniProt Q04721, residues 26-2471: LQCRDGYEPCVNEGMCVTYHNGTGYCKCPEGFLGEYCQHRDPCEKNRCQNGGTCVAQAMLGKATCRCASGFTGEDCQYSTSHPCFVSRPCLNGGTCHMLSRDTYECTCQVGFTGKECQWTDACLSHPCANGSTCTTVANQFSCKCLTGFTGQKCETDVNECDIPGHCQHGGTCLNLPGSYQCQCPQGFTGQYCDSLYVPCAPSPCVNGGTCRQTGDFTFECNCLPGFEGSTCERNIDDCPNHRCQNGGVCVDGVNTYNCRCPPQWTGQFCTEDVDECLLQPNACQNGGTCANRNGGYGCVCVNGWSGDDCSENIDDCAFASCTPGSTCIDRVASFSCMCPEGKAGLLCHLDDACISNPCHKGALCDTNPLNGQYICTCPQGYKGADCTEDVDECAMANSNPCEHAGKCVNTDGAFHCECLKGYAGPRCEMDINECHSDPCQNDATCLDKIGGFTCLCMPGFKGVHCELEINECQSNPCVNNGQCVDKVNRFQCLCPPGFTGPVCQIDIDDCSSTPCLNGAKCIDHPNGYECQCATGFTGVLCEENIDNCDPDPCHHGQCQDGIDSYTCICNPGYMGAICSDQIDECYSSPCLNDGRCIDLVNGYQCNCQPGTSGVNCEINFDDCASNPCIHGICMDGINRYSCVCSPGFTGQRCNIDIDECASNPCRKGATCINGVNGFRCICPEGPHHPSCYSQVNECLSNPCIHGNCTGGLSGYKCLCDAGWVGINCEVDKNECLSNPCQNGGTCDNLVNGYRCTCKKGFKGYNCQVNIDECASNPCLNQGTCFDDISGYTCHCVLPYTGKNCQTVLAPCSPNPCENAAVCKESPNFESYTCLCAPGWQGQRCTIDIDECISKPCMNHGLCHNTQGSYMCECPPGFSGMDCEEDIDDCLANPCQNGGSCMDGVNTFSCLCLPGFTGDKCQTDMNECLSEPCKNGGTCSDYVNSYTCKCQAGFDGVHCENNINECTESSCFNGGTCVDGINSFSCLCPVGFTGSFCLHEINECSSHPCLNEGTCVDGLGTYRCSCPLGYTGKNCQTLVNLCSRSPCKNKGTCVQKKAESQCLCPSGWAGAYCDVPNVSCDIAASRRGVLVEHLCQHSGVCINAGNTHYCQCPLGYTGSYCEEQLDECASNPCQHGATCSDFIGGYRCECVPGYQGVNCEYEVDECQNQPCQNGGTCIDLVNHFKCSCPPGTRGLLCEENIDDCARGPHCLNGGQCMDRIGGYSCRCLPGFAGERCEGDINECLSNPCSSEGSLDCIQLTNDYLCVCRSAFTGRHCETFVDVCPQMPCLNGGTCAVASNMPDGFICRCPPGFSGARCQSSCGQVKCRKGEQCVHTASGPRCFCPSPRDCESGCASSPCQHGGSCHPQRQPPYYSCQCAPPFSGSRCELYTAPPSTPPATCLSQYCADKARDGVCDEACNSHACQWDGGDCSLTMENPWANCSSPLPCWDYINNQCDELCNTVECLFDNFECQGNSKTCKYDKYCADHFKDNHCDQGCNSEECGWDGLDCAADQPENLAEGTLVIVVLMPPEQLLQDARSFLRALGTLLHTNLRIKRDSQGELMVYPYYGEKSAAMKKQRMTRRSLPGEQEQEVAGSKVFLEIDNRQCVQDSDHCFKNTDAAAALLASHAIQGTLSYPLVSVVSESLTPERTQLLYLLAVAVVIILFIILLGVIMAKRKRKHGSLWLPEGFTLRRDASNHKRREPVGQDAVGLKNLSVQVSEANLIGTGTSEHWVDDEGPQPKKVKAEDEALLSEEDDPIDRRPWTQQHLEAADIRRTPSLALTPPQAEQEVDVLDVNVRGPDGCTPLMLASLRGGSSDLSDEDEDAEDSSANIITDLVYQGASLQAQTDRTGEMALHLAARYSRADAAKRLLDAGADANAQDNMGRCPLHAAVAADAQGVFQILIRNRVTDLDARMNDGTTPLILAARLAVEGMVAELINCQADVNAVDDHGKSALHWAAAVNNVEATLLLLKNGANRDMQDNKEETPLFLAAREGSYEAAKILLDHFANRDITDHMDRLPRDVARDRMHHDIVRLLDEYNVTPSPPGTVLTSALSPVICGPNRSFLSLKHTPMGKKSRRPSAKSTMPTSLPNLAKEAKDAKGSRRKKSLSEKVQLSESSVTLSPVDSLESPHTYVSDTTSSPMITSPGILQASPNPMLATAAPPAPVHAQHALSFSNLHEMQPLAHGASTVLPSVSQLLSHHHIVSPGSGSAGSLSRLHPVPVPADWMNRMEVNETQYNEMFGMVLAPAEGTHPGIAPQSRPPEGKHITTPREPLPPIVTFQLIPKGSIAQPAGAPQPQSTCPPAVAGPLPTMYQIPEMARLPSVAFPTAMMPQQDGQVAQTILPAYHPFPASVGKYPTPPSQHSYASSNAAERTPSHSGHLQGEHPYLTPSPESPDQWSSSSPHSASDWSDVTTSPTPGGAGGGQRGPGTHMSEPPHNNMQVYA
UniProt Q9UM47, residues 40-2321: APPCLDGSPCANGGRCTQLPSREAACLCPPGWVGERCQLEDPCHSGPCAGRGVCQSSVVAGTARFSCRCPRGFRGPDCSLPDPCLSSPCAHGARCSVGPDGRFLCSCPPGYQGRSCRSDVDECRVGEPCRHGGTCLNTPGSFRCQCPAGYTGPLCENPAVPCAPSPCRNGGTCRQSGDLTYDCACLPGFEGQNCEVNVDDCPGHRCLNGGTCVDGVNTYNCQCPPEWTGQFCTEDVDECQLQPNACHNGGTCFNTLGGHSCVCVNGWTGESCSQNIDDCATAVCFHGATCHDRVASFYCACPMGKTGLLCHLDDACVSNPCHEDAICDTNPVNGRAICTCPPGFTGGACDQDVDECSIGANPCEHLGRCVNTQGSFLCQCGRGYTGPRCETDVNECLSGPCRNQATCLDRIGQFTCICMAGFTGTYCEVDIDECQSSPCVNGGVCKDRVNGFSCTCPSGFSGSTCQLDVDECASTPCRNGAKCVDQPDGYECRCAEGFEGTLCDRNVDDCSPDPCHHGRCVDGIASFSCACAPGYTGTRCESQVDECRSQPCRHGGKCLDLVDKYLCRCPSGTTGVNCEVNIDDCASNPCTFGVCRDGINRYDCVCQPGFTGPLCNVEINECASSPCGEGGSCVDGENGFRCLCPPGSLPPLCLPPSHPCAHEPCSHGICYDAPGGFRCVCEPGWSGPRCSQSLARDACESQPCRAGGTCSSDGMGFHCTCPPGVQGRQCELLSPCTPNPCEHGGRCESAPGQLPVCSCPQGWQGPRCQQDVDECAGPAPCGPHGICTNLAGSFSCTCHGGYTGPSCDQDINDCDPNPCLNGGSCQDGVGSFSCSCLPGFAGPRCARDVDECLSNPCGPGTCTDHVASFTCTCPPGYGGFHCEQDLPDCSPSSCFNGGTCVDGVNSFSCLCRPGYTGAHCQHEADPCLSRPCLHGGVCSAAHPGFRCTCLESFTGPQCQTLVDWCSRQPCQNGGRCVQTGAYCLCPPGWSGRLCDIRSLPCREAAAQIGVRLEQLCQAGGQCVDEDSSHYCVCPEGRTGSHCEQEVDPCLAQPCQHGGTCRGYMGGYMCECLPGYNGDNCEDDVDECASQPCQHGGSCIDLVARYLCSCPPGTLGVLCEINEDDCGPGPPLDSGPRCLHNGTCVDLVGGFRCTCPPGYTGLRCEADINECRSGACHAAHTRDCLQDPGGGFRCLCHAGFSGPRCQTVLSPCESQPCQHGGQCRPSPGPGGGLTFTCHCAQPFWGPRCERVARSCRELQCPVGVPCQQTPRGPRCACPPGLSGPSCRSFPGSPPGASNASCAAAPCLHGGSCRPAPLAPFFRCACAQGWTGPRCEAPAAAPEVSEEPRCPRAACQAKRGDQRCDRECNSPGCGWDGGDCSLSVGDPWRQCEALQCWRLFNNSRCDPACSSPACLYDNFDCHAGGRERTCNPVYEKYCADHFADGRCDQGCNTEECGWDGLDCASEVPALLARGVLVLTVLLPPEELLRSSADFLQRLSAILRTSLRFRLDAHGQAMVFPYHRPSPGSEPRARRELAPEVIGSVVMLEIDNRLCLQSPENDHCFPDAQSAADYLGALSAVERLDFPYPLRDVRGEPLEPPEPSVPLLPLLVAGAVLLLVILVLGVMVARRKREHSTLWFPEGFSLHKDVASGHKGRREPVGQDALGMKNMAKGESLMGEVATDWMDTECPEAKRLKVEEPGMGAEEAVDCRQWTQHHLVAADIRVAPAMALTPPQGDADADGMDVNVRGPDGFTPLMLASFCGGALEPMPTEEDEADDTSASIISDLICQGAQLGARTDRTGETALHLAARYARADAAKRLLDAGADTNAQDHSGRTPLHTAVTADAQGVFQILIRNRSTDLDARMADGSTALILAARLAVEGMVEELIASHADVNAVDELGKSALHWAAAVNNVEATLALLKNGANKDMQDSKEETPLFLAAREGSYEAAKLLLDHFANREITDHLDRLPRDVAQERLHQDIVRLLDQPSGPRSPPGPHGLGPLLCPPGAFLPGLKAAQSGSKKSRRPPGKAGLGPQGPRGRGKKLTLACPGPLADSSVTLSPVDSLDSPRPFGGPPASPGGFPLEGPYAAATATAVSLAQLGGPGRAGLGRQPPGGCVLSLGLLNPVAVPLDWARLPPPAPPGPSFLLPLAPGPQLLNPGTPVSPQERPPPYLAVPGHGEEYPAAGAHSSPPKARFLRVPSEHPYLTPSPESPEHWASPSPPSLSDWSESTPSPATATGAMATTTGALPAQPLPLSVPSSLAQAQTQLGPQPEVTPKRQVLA
UniProt P78504, residues 34-1067: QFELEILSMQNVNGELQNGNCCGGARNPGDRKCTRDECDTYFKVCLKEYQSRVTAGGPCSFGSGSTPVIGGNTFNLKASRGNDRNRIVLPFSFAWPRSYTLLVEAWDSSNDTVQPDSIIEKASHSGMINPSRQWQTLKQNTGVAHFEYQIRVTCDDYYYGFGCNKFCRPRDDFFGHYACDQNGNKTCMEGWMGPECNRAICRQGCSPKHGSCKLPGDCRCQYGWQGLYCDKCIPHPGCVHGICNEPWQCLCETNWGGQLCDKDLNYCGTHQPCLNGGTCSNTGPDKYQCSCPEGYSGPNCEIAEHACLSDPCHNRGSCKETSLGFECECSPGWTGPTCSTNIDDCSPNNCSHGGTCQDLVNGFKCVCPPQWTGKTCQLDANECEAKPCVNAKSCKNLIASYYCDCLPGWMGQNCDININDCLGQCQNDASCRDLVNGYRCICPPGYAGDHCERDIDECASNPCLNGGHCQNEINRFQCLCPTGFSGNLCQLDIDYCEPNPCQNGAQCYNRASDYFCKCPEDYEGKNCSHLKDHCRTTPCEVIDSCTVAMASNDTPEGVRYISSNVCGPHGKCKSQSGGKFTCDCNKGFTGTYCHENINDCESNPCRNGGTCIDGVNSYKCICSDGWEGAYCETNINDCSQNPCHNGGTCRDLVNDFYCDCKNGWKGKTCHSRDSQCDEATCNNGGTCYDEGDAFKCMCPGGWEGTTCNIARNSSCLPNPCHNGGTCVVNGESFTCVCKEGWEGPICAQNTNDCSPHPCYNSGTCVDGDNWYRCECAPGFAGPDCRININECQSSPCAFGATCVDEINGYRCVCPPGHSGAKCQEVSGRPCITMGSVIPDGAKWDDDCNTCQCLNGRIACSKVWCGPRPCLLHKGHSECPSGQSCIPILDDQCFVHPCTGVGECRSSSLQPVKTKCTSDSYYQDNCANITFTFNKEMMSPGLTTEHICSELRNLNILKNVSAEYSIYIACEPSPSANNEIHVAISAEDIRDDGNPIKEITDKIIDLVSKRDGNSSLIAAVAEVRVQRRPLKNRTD

Columns and labels:
[1] = molecular target: Notch2 (human (endogenous in human aortic SMCs)) (UniProt Q04721); experiment: flow cytometry on cells
[2] = molecular target: Notch3 (human (endogenous in human aortic SMCs)) (UniProt Q9UM47); experiment: flow cytometry on cells

Substance: recombinant human Jagged1-Fc chimeric ligand (from UniProt P78504 34-1067) (Fc fusion)
- binding [1]: binds
- binding [2]: binds
